# Measured values taken from PubChem BioAssay AID1487 (National Center for Advancing Translational Sciences (NCATS), 2009).
# The other results are listed elsewhere or left out. These are further read-outs of the screen, such as a control signal, another cell line or another target. No call is given for them. The list favours compounds with an active or inconclusive main result. Words in brackets tell the shape of the fitted curve; partial curves, single points and poor fits give uncertain potencies.
# Assay: qHTS Assay for Modulators of Lamin A Splicing
# Conditions: HeLa LMNA splicing GFP/RFP minigene ratio, 48 h
# Procedure, shortened: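 S3 HeLa stable clones carrying a lamin A-EGFP splicing minigene plus DsRed2 were seeded at 600 cells/well in Opti-MEM with 2% FBS, pin-dosed and incubated 48 h at 37°C. Acumen cytometry (488 nm) gave the GFP/RFP total-intensity ratio.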
# [1] = measured here: RFP viability control channel
# [2] = measured here: GFP splicing reporter channel
Compound,AC50 [1],AC50 [2]
Cc1ccc2nc(NC(=O)CSc3nccn3-c3ccc(Cl)cc3)sc2c1,"14.1 µM [falling, partial curve]",
CCOC(=O)c1cc(-c2cccs2)nc2c1c(C)nn2-c1ccccn1,"12.6 µM [falling, single point]","11.2 µM [falling, single point]"
Cc1ccc2nc(/C(C#N)=C\c3cc(C)n(-c4cccc([N+](=O)[O-])c4)c3C)[nH]c2c1,"14.1 µM [rising, single point]",
Cc1cc(C(=O)N/N=C2\CC(=O)CC(C)(C)C2)c(C)n1-c1ccccc1,"35.5 µM [rising, single point]","22.4 µM [rising, single point]"
COc1ccc(/C=C/C(=O)c2c(C)nc3ccccn23)cc1,"35.5 µM [falling, single point]","11.2 µM [falling, partial curve]"
COCCNC(=S)N/N=C(\C)c1ccc2cc(OC)ccc2c1,"31.6 µM [rising, single point]","35.5 µM [rising, single point]"
COc1ccc(C2c3c(n[nH]c3C)CC(C)(O)C2C(C)=O)cc1OC (stereo not drawn),"0.01 µM [falling, full curve, poor fit]",
Cc1c(C)c2c(c(C)c1O)CC[C@@](C)(CCC[C@H](C)CCC[C@H](C)CCCC(C)C)O2,"0.112 µM [rising, full curve, poor fit]",
CCOC(=O)N1CCN(Cc2cn[nH]c2-c2cccc3ccccc23)CC1,"0.316 µM [rising, full curve, poor fit]","0.158 µM [rising, full curve, poor fit]"
O=C(NCc1cccnc1)NC1(C(F)(F)F)Oc2ccccc2O1,"15.8 µM [rising, single point]",
Cc1nc(C(=O)N(C)C)nn1-c1ccc([N+](=O)[O-])cc1,"0.0224 µM [falling, full curve, poor fit]",
CC(=O)N1CCCc2cc(S(=O)(=O)NC(C(=O)NC3CCCCC3)C(C)C)ccc21 (stereo not drawn),,"22.4 µM [rising, single point]"
CCN(CC)S(=O)(=O)c1ccc(N2CCCC2)c(NC(=O)c2ccncc2)c1,,"35.5 µM [rising, partial curve, poor fit]"
CN1C(=O)c2cccc3c(S(=O)(=O)NCc4ccco4)ccc1c23,"28.2 µM [rising, single point]",
COc1ccc(C(CNC(=O)COc2ccc(F)cc2Br)N2CCCC2)cc1 (stereo not drawn),"6.31 µM [falling, single point]","1.41 µM [falling, partial curve]"
COc1cccc(-c2cc3nc4c(c(NCC(C)(C)CN(C)C)n3n2)CCCC4)c1,"0.0398 µM [rising, full curve, poor fit]","0.158 µM [rising, full curve, poor fit]"
COc1ccc(N2C(=O)CC(SC(C)C)C2=O)cc1 (stereo not drawn),"3.16 µM [rising, single point]",

Compound,AC50 [1],AC50 [2]
CCCOc1ccc(/C=N/NC(=S)Nc2ccccc2[N+](=O)[O-])c(O)c1,"10 µM [rising, partial curve]","2.82 µM [rising, partial curve]"
Oc1ccc(Nc2nc(NCC3CCCO3)c3ccccc3n2)cc1 (stereo not drawn),"22.4 µM [rising, single point]","22.4 µM [rising, partial curve, poor fit]"
COc1ccc(/C=C/C(=O)NC(=S)NNC(=O)c2c(-c3ccccc3)noc2C)cc1,"12.6 µM [rising, single point]",
O=C(c1ccc2c(c1)OCO2)N1CCN(c2ccc(Cl)cc2)CC1,"12.6 µM [rising, partial curve]","3.55 µM [rising, full curve]"
O=C(COC(=O)c1cc([N+](=O)[O-])ccc1NCc1ccccc1Cl)NCC(F)(F)F,"7.94 µM [rising, partial curve, poor fit]",
Cc1ccc(C(=O)CN2/C(=C(\O)c3ccccc3)C(=O)c3ccccc3S2(=O)=O)c(C)c1,,"0.00891 µM [falling, full curve, poor fit]"
O=C1C2CCCN2C(c2ccccc2)N1c1ccc(Cl)cc1 (stereo not drawn),"12.6 µM [rising, partial curve]",
c1ccc(Nc2n[nH]nc2-c2ccccc2)cc1,"5.62 µM [rising, full curve, poor fit]","11.2 µM [rising, partial curve, poor fit]"
O=C1S/C(=C\c2ccc(N3CCOCC3)o2)C(=O)N1Cc1ccc(F)cc1,"15.8 µM [falling, partial curve]","35.5 µM [falling, single point]"
CCOC(=O)C1CCN(C(=O)c2ccc3c(c2)OCO3)CC1,,"5.62 µM [rising, single point]"
COc1ccc2c(c1)CC(C(=O)NCCCN1CCN(c3cccc(Cl)c3)CC1)CO2 (stereo not drawn),,"10 µM [falling, partial curve]"
COc1ccc(NC(=O)c2ccc(NCCCN3CCOCC3)c([N+](=O)[O-])c2)cc1,"0.0112 µM [rising, full curve, poor fit]",
COc1cc2c3c(c1)-c1c(sn(-c4cc(OC)ccc4OC)c1=S)C(C)(C)N3C(=O)C2=O,"35.5 µM [falling, single point]",
Cc1c(C(=O)OCC(=O)c2ccc3c(c2)OCCO3)oc2ccccc12,"20 µM [rising, single point]","11.2 µM [rising, single point]"
CCN1CCN(C(=S)Nc2cccc([N+](=O)[O-])c2)CC1,"35.5 µM [rising, single point]","35.5 µM [rising, single point]"
O=C(Cn1c(=O)nc(-c2ccccc2)c2cc(Cl)ccc21)N1CCN(c2ccccc2F)CC1,,"0.01 µM [rising, full curve, poor fit]"
Cc1c(Cl)cccc1NC(=S)N(Cc1cccnc1)Cc1ccccc1Cl,"20 µM [rising, single point]",

# Another view of 2 compounds above:
Compound	AC50 [1]	AC50 [2]
CN1C(=O)c2cccc3c(S(=O)(=O)NCc4ccco4)ccc1c23	28.2 µM [rising, single point]	
COc1ccc(C(CNC(=O)COc2ccc(F)cc2Br)N2CCCC2)cc1 (stereo not drawn)	6.31 µM [falling, single point]	1.41 µM [falling, partial curve]
